Structures were worked out from names or drawings and are uncertain.

Protein sequences, listed by entry. Tags and fused reporters are not part of them. Residues count along the entry.
UniProt P00746, 26-253 limits assumed: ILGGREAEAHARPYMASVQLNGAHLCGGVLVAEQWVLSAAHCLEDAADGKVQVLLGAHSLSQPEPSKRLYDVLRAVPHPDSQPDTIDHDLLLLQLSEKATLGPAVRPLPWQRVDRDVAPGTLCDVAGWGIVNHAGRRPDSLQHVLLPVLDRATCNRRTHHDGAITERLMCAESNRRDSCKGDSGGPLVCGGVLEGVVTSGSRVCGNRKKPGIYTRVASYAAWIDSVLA

The target in this test is Human Factor D (Homo sapiens (Human), UniProt P00746). The test can be described thus: Human Factor D Assay. It counts as biochemical. The following applies: read-out: IC50 (Stars).

As a reminder, the IC50 is the concentration that gives 50% inhibition. On to `CC(=O)c1nn(CC(=O)[C@@H]2C[C@H]3C[C@H]3N2C(=O)Nc2cccc(Br)n2)c2ccc(-c3cnc(C)nc3)cc12`, for which the IC50 is over 10 µM.

Source of the values: patent US10287301B2 (Achillion Pharmaceuticals, Inc., priority 2015, dated 2019).
